# Assay results taken from article PMC8212425 (Translational Vision Science & Technology, 2021).
# How the values were obtained:
# [1] = test system: VEGFR-2; settings: cited from earlier work
# [2] = type: in vivo, New Zealand White rabbits; settings: 1 mg/eye, NZW rabbits
# [3] = test system: VEGFR-1; settings: cited from earlier work
# [4] = test system: VEGFR2; settings: in vitro VEGFR2 autophosphorylation inhibition assay; cited from earlier work
# [5] = test system: VEGFR-3; settings: cited from earlier work
smiles,measurement,setting,value
CNC(=O)c1ccccc1Sc1ccc2c(/C=C/c3ccccn3)n[nH]c2c1 [Axitinib],Inhibitory concentration,[1],picomolar
same,"Fold higher AUC0-t (exposure) in PEC, SC versus IVT",[2],11 fold
same,"Fold higher Cmax in PEC, SC versus IVT",[2],6.4 fold
same,Inhibitory concentration,[3],picomolar
same,50% inhibitory concentration value,[4],0.2 ng/mL
same,Inhibitory concentration,[5],picomolar
